In PMC8795447:
These are yes or no findings as the source states them, for the method shown. Binding seen in cells or lysates may run through a third protein. For part of these data: Binding calls can cover weak binding; strength is not graded here.

What was measured:
[1] = biological target: angiotensin II type 1 receptor-NanoLuc (human) (UniProt P30556); assay: condition: only in ΔQ-GRK cells (knockout of GRK2, 3, 5 and 6); FRET or BRET; intermolecular NanoBRET (GPCR-NanoLuc, Halo-Tag-β-arrestin) in ΔQ-GRK cells + empty vector (knockout of GRK2, 3, 5 and 6), agonist-stimulated
[2] = biological target: angiotensin II type 1 receptor-NanoLuc (human) (UniProt P30556); assay: FRET or BRET; intermolecular NanoBRET in living HEK293 cells: GPCR-NanoLuc (donor) and Halo-Tag-β-arrestin labelled with Halo 618 ligand (acceptor); Control, ΔGRK clones or ΔQ-GRK with EV or one overexpressed GRK (2, 3, 5 or 6); baseline 3 min, then agonist for 5 min; some experiments with Gö6983, cmpd101, pindolol or Losartan
[3] = biological target: angiotensin II type 1 receptor-NanoLuc (human) (UniProt P30556); assay: condition: only in ΔQ-GRK cells with the PKC inhibitor Gö6983 (500 nM); FRET or BRET; intermolecular NanoBRET (AT1R-NanoLuc, Halo-Tag-β-arrestin) in ΔQ-GRK cells + empty vector, pre-incubated with 500 nM PKC inhibitor Gö6983 at 37 °C for 1 h, then AngII

binding [1]: no binding
binding [2]: binds
binding [3]: no binding
Substance: Halo-Tag-β-arrestin2 lacking the finger loop region (dFLR) (from UniProt P32120)
